Measured data: PubChem BioAssay AID1224831 (NIAID, 2016)

Aim: 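Genes that support or restrain LPS-induced TNF-alpha reporter activity in macrophage-like cells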 (follow-up of hits)
System: human THP-1 B5 monocytic leukaemia cells carrying a TNF promoter luciferase reporter, made macrophage-like with PMA
Knock-down reagent: single siRNA against human genes, 50 nM
Time to read-out: about 68 h of knock-down, then 4 h LPS
Treatment: LPS (Salmonella minnesota, TLR-grade) at 10 ng/ml for 4 h; PMA 5 ng/ml present during knock-down
Detection: 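Firefly to renilla luciferase ratio of a TNF promoter reporter after 4 h LPS, scaled to plate median, turned into robust z-score, averaged over replicates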
Reading the numbers: TNF reporter z-score: higher = stronger LPS-induced TNF reporter signal; z-score, median over gene's siRNAs: higher = stronger TNF reporter signal across the gene's siRNAs
Hit rule: 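Two-sided call: reduced or raised TNF reporter signal counts as active once mean z reaches about -1 or below, or about 1.5 or above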
Meaning of the calls: active = changed TNF reporter (either direction); inactive = little change
The whole screen tested about 3,500 reagents; shown is an unselected part. Of all reagents, 731 (21%) got an active call. 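Active means either lowered or raised reporter signal; the gene-median score did not drive the per-siRNA calls.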 Reagents against one gene are numbered here.

TTK (GeneID 7272) #1 | TNF reporter z-score, replicate mean = -0.56; z-score, median over gene's siRNAs = 0.23; activity call = inactive
TTK (GeneID 7272) #2 | TNF reporter z-score, replicate mean = 0.07; z-score, median over gene's siRNAs = 0.23; activity call = inactive
TTK (GeneID 7272) #3 | TNF reporter z-score, replicate mean = 0.54; z-score, median over gene's siRNAs = 0.23; activity call = inactive
TTK (GeneID 7272) #4 | TNF reporter z-score, replicate mean = 0.8; z-score, median over gene's siRNAs = 0.23; activity call = inactive
TTK (GeneID 7272) #5 | TNF reporter z-score, replicate mean = 0.39; z-score, median over gene's siRNAs = 0.23; activity call = inactive
TTK (GeneID 7272) #6 | TNF reporter z-score, replicate mean = -0.39; z-score, median over gene's siRNAs = 0.23; activity call = inactive
FBXW7 (GeneID 55294) #1 | TNF reporter z-score, replicate mean = -0.4; z-score, median over gene's siRNAs = -0.475; activity call = inactive
FBXW7 (GeneID 55294) #2 | TNF reporter z-score, replicate mean = -0.79; z-score, median over gene's siRNAs = -0.475; activity call = inactive
FBXW7 (GeneID 55294) #3 | TNF reporter z-score, replicate mean = -0.44; z-score, median over gene's siRNAs = -0.475; activity call = inactive
FBXW7 (GeneID 55294) #4 | TNF reporter z-score, replicate mean = -0.86; z-score, median over gene's siRNAs = -0.475; activity call = inactive
FBXW7 (GeneID 55294) #5 | TNF reporter z-score, replicate mean = -0.51; z-score, median over gene's siRNAs = -0.475; activity call = inactive
FBXW7 (GeneID 55294) #6 | TNF reporter z-score, replicate mean = 1.18; z-score, median over gene's siRNAs = -0.475; activity call = inactive
SACK1F (GeneID 113828) #1 | TNF reporter z-score, replicate mean = -0.61; z-score, median over gene's siRNAs = 0.095; activity call = inactive
SACK1F (GeneID 113828) #2 | TNF reporter z-score, replicate mean = 1.86; z-score, median over gene's siRNAs = 0.095; activity call = active
SACK1F (GeneID 113828) #3 | TNF reporter z-score, replicate mean = -0.44; z-score, median over gene's siRNAs = 0.095; activity call = inactive
SACK1F (GeneID 113828) #4 | TNF reporter z-score, replicate mean = 0.24; z-score, median over gene's siRNAs = 0.095; activity call = inactive
SACK1F (GeneID 113828) #5 | TNF reporter z-score, replicate mean = 3.29; z-score, median over gene's siRNAs = 0.095; activity call = active
SACK1F (GeneID 113828) #6 | TNF reporter z-score, replicate mean = -0.05; z-score, median over gene's siRNAs = 0.095; activity call = inactive
CD52 (GeneID 1043) #1 | TNF reporter z-score, replicate mean = -2.62; z-score, median over gene's siRNAs = 1.08; activity call = active
CD52 (GeneID 1043) #2 | TNF reporter z-score, replicate mean = 0.95; z-score, median over gene's siRNAs = 1.08; activity call = inactive
CD52 (GeneID 1043) #3 | TNF reporter z-score, replicate mean = 1.22; z-score, median over gene's siRNAs = 1.08; activity call = inactive
CD52 (GeneID 1043) #4 | TNF reporter z-score, replicate mean = 1.56; z-score, median over gene's siRNAs = 1.08; activity call = active
CD52 (GeneID 1043) #5 | TNF reporter z-score, replicate mean = 2.41; z-score, median over gene's siRNAs = 1.08; activity call = active
CD52 (GeneID 1043) #6 | TNF reporter z-score, replicate mean = 0.05; z-score, median over gene's siRNAs = 1.08; activity call = inactive

Next part; the last 6 above are carried over.
CD52 (GeneID 1043) #1 | TNF reporter z-score, replicate mean = -2.62; z-score, median over gene's siRNAs = 1.08; activity call = active
CD52 (GeneID 1043) #2 | TNF reporter z-score, replicate mean = 0.95; z-score, median over gene's siRNAs = 1.08; activity call = inactive
CD52 (GeneID 1043) #3 | TNF reporter z-score, replicate mean = 1.22; z-score, median over gene's siRNAs = 1.08; activity call = inactive
CD52 (GeneID 1043) #4 | TNF reporter z-score, replicate mean = 1.56; z-score, median over gene's siRNAs = 1.08; activity call = active
CD52 (GeneID 1043) #5 | TNF reporter z-score, replicate mean = 2.41; z-score, median over gene's siRNAs = 1.08; activity call = active
CD52 (GeneID 1043) #6 | TNF reporter z-score, replicate mean = 0.05; z-score, median over gene's siRNAs = 1.08; activity call = inactive
LINC02914 (GeneID 283598) #1 | TNF reporter z-score, replicate mean = 0.8; z-score, median over gene's siRNAs = 0.155; activity call = inactive
LINC02914 (GeneID 283598) #2 | TNF reporter z-score, replicate mean = 0.47; z-score, median over gene's siRNAs = 0.155; activity call = inactive
LINC02914 (GeneID 283598) #3 | TNF reporter z-score, replicate mean = 0.99; z-score, median over gene's siRNAs = 0.155; activity call = inactive
LINC02914 (GeneID 283598) #4 | TNF reporter z-score, replicate mean = -0.16; z-score, median over gene's siRNAs = 0.155; activity call = inactive
LINC02914 (GeneID 283598) #5 | TNF reporter z-score, replicate mean = -0.19; z-score, median over gene's siRNAs = 0.155; activity call = inactive
LINC02914 (GeneID 283598) #6 | TNF reporter z-score, replicate mean = -0.26; z-score, median over gene's siRNAs = 0.155; activity call = inactive
RPL7L1 (GeneID 285855) #1 | TNF reporter z-score, replicate mean = -0.05; z-score, median over gene's siRNAs = -0.49; activity call = inactive
RPL7L1 (GeneID 285855) #2 | TNF reporter z-score, replicate mean = 1.47; z-score, median over gene's siRNAs = -0.49; activity call = inactive
RPL7L1 (GeneID 285855) #3 | TNF reporter z-score, replicate mean = -0.64; z-score, median over gene's siRNAs = -0.49; activity call = inactive
RPL7L1 (GeneID 285855) #4 | TNF reporter z-score, replicate mean = -0.35; z-score, median over gene's siRNAs = -0.49; activity call = inactive
RPL7L1 (GeneID 285855) #5 | TNF reporter z-score, replicate mean = -1.49; z-score, median over gene's siRNAs = -0.49; activity call = active
RPL7L1 (GeneID 285855) #6 | TNF reporter z-score, replicate mean = -0.63; z-score, median over gene's siRNAs = -0.49; activity call = inactive
POSTN (GeneID 10631) #1 | TNF reporter z-score, replicate mean = -0.18; z-score, median over gene's siRNAs = 0.475; activity call = inactive
POSTN (GeneID 10631) #2 | TNF reporter z-score, replicate mean = 0.03; z-score, median over gene's siRNAs = 0.475; activity call = inactive
POSTN (GeneID 10631) #3 | TNF reporter z-score, replicate mean = 0.93; z-score, median over gene's siRNAs = 0.475; activity call = inactive
POSTN (GeneID 10631) #4 | TNF reporter z-score, replicate mean = 13.8; z-score, median over gene's siRNAs = 0.475; activity call = active
POSTN (GeneID 10631) #5 | TNF reporter z-score, replicate mean = 0.92; z-score, median over gene's siRNAs = 0.475; activity call = inactive
POSTN (GeneID 10631) #6 | TNF reporter z-score, replicate mean = -0.48; z-score, median over gene's siRNAs = 0.475; activity call = inactive
